{"sequences": {"note": "Chains of the proteins cited; added tags and fusions are not shown. Lines headed by an entry give the natural chain unless they say otherwise; changes in a name come on top.", "UniProt Q3KQU3": "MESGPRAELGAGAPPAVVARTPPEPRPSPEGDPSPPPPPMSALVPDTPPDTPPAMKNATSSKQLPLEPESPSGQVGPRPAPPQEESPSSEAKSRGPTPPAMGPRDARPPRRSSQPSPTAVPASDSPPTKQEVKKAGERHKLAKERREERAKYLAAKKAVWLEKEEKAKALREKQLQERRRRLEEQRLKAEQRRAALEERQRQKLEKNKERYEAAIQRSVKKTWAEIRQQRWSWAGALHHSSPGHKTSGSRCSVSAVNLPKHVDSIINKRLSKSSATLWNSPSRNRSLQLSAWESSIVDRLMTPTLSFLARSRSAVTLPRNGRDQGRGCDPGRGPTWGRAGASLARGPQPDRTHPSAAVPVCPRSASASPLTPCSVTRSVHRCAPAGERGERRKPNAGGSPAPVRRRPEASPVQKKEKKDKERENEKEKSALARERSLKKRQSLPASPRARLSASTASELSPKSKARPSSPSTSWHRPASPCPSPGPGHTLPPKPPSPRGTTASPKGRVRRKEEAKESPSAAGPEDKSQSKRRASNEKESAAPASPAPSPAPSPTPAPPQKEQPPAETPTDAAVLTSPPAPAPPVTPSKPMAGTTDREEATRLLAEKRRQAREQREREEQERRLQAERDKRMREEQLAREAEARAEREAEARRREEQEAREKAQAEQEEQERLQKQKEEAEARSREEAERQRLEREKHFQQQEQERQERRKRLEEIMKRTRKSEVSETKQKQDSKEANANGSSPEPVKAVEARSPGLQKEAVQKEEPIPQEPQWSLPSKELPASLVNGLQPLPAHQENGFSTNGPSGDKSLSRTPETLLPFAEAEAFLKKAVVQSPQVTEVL", "UniProt Q14703": "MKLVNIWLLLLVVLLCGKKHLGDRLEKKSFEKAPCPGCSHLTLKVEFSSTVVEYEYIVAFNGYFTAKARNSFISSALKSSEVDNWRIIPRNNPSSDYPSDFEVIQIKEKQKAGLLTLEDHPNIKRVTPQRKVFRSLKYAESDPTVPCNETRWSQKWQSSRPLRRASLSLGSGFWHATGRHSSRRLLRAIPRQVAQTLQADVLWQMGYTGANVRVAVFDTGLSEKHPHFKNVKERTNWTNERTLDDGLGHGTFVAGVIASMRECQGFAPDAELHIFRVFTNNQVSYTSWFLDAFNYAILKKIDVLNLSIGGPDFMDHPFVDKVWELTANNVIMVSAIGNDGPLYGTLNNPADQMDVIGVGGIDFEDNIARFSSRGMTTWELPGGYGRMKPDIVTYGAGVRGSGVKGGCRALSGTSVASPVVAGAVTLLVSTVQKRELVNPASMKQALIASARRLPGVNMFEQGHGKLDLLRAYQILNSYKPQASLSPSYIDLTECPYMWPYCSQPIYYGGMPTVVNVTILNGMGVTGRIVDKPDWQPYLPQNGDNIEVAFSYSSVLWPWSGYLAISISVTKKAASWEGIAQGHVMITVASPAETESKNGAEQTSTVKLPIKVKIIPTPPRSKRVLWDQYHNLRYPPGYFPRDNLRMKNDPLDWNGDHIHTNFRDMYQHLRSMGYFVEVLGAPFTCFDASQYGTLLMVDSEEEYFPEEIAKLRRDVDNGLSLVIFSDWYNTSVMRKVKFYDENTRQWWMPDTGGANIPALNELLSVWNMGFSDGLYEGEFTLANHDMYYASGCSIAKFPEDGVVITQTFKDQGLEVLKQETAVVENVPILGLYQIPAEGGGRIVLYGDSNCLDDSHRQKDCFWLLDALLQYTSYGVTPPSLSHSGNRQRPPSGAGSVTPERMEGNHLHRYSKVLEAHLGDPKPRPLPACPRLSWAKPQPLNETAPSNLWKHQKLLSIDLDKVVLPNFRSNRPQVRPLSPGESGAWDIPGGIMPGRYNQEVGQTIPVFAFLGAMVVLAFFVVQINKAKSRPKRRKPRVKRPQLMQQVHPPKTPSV", "UniProt Q9ULC4": "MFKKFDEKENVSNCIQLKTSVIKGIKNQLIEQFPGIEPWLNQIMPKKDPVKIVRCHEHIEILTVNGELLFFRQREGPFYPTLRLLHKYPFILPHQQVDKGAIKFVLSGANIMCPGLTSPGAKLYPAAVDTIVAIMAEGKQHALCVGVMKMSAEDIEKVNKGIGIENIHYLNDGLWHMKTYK", "UniProt Q16644": "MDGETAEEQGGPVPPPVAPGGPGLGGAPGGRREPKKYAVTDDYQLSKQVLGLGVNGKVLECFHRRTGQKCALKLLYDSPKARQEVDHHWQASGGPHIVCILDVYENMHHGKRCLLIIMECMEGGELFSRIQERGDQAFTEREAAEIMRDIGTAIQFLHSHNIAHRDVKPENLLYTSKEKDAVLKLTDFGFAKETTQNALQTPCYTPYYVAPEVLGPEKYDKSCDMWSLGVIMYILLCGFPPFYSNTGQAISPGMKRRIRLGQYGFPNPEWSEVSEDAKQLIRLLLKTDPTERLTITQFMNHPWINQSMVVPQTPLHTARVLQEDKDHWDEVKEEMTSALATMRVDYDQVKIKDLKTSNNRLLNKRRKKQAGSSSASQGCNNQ", "UniProt Q32MZ4": "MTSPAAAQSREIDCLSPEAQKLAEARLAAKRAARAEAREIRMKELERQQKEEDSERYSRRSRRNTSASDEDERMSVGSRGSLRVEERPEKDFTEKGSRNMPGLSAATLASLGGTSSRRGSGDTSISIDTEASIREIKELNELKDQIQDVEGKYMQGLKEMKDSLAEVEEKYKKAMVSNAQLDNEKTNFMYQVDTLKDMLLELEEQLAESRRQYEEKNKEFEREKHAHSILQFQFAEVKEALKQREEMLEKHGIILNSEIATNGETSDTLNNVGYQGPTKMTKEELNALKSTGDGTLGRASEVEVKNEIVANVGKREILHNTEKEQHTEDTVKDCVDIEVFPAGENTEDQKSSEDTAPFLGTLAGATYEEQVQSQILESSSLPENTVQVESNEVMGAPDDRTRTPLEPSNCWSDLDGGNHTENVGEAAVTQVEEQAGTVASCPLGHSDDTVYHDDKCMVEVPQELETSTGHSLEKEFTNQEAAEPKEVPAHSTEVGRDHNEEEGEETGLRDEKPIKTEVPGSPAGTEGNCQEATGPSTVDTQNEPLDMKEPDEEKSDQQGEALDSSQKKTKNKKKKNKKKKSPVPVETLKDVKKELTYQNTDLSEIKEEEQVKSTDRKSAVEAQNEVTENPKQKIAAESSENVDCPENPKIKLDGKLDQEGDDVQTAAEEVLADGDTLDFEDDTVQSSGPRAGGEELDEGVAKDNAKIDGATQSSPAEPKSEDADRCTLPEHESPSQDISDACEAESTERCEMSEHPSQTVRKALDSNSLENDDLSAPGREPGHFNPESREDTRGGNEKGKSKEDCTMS", "UniProt P49137, whole entry, looked up": "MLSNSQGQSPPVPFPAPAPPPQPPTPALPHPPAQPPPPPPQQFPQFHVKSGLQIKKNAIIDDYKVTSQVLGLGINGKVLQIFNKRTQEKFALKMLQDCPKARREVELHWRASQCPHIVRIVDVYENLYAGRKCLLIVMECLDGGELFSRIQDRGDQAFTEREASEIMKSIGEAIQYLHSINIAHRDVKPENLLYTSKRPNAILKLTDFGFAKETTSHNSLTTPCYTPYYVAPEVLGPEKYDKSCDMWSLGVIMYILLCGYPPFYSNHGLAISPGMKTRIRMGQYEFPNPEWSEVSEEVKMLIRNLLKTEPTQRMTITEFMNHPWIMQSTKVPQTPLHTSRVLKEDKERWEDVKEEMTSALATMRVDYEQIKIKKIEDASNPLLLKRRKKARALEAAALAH", "UniProt Q96EZ8, whole entry, looked up": "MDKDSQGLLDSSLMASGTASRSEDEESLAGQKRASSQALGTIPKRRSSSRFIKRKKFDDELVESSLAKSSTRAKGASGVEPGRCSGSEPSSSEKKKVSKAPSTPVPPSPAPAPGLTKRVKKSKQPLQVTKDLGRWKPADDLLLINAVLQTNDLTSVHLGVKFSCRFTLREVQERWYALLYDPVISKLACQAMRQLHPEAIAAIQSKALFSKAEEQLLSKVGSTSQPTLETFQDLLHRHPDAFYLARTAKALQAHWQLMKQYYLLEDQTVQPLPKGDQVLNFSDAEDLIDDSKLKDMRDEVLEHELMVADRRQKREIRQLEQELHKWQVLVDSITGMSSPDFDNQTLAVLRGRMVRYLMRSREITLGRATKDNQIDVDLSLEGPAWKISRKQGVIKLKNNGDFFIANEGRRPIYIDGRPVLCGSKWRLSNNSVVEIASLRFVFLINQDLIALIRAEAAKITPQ", "UniProt Q96L34": "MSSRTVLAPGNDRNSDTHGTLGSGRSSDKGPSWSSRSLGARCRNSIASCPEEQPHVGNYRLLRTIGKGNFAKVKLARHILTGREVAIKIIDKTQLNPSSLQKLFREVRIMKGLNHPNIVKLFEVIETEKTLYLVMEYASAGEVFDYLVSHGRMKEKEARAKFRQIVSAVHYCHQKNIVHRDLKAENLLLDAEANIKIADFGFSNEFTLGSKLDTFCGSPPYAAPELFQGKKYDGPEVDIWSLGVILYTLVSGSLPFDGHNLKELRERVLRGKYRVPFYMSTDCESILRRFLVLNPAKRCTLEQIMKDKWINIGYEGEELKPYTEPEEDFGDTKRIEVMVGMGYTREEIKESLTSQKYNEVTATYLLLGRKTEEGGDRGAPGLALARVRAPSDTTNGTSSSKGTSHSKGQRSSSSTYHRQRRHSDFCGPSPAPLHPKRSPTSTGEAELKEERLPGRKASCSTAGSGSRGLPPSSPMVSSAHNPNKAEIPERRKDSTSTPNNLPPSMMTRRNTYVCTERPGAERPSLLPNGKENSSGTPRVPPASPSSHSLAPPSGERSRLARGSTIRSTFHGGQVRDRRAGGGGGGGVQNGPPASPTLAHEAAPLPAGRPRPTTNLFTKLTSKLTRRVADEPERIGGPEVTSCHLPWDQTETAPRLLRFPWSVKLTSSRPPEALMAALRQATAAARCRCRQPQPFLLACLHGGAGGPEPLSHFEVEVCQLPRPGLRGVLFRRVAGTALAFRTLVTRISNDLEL", "UniProt P33993": "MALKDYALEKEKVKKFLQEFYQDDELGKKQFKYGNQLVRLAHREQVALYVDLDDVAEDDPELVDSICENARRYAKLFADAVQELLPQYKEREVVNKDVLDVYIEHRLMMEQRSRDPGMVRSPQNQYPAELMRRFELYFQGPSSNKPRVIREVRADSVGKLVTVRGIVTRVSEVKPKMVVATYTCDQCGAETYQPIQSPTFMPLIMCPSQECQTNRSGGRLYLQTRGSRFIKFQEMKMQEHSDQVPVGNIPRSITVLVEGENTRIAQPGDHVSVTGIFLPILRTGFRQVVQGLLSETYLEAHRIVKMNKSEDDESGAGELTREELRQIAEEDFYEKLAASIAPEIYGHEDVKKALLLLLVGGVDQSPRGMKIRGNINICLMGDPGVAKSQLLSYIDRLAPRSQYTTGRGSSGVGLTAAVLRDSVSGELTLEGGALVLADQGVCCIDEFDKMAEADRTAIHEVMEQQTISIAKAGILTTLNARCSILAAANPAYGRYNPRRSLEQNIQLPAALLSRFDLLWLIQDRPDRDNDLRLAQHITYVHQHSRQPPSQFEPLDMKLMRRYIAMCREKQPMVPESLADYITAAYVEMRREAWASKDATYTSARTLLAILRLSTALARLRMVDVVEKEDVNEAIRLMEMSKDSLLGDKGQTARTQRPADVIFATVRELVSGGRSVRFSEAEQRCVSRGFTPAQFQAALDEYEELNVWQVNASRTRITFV", "UniProt Q9UK45": "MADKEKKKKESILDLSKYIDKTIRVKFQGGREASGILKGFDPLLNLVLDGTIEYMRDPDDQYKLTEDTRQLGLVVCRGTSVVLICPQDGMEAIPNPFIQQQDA", "UniProt Q7L590": "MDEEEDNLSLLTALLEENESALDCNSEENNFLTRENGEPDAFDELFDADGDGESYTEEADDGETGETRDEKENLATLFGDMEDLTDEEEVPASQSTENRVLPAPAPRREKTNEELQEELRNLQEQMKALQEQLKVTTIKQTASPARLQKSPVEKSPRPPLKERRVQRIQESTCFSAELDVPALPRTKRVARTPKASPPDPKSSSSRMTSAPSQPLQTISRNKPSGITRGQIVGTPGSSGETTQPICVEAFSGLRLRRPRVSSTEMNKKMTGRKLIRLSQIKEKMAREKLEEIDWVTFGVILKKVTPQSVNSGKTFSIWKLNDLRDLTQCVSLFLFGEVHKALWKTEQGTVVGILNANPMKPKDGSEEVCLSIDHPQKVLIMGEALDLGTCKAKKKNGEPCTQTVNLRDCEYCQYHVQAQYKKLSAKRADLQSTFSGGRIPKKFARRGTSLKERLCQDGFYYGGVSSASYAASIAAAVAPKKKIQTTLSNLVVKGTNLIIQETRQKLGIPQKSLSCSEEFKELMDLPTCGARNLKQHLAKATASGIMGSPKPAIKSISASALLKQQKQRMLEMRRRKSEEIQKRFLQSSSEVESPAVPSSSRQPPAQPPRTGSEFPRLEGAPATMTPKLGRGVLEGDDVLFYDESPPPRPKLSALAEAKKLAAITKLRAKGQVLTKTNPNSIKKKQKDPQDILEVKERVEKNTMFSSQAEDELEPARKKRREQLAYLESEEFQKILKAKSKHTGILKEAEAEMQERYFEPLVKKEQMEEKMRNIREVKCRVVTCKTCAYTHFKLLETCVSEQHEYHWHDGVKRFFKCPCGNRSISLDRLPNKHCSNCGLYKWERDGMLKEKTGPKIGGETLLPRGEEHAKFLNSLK"}, "source": "the supplement of paper PMC11732987", "about": "“Enantioselective OTUD7B fragment discovery through chemoproteomics screening and high-throughput optimisation” (Communications Chemistry, 2025)", "note": "Some of the results follow. The data scatter; read single values as rough.", "data": [{"compound": "ClCC(=O)N[C@H]1CCCc2ccccc12", "assay": "log2 mean competition ratio of IA-DTB cysteine labelling (DMSO/compound) (log2 ratio); higher = stronger cysteine engagement by compound", "settings": "50 µM; treatment time: 4 h; cell line lysate: HEK293T", "protocol": "(§1)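 IA-DTB competitive cysteine chemoproteomics in HEK293T RIPA lysate. Lysates were treated with compound 29 or 30 at 50 or 200 µM for 4 h, then IA-DTB (500 µM, 1 h), trypsin-digested, NeutrAvidin-enriched and analysed by diaPASEF. Competition ratio = intensity DMSO / intensity compound (n=4 treated, n=64 DMSO); binding: mean log2 CR ≥ 1 and p ≤ 0.05 plus QC filters. Target is the cysteine site.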", "values": [{"target": "MAP7D1 C361 (UniProt Q3KQU3)", "log2 mean competition ratio": 0.603}, {"target": "MBTPS1 C849 (UniProt Q14703)", "log2 mean competition ratio": -0.499}, {"target": "MCTS1 C14 (UniProt Q9ULC4)", "log2 mean competition ratio": -0.451}, {"target": "MAP2K6 C38 (UniProt P52564)", "log2 mean competition ratio": -0.134}, {"target": "MAP3K4 C61 (UniProt Q9Y6R4)", "log2 mean competition ratio": -0.117}, {"target": "LTN1 C981 (UniProt O94822)", "log2 mean competition ratio": -0.162}, {"target": "MAPKAPK3 C379 (UniProt Q16644)", "log2 mean competition ratio": 0.0979}, {"target": "LRRFIP1 C644 (UniProt Q32MZ4)", "log2 mean competition ratio": -0.0625}, {"target": "MAPKAPK2 C98 (UniProt P49137)", "log2 mean competition ratio": 0.518}, {"target": "MAF C305", "log2 mean competition ratio": 0.198}, {"target": "MCRS1 C84 (UniProt Q96EZ8)", "log2 mean competition ratio": 0.0137}, {"target": "MAP4K3 C555 (UniProt Q8IVH8)", "log2 mean competition ratio": -0.376}, {"target": "MARK4 C459 (UniProt Q96L34)", "log2 mean competition ratio": 0.0769}, {"target": "MCM7 C378 (UniProt P33993)", "log2 mean competition ratio": -0.152}, {"target": "LSM7 C76 (UniProt Q9UK45)", "log2 mean competition ratio": 0.83}, {"target": "MACF1 C6646", "log2 mean competition ratio": -0.145}, {"target": "MAP2K7 C260 (UniProt O14733)", "log2 mean competition ratio": -0.475}, {"target": "LZTR1 C342 (UniProt Q8N653)", "log2 mean competition ratio": 0.142}, {"target": "MAP3K15 C1227 (UniProt Q6ZN16)", "log2 mean competition ratio": 0.365}, {"target": "LRRFIP1 C750 (UniProt Q32MZ4)", "log2 mean competition ratio": 0.0449}]}, {"compound": "ClCC(=O)N[C@H]1CCCc2ccccc12", "assay": "log2 mean competition ratio of IA-DTB cysteine labelling (DMSO/compound) (log2 ratio); higher = stronger cysteine engagement by compound", "settings": "200 µM; treatment time: 4 h; cell line lysate: HEK293T", "protocol": "as §1", "values": [{"target": "MAP7D1 C361 (UniProt Q3KQU3)", "log2 mean competition ratio": -0.00927}, {"target": "MBTPS1 C849 (UniProt Q14703)", "log2 mean competition ratio": -0.0357}, {"target": "MCTS1 C14 (UniProt Q9ULC4)", "log2 mean competition ratio": -0.118}, {"target": "MAP2K6 C38 (UniProt P52564)", "log2 mean competition ratio": -0.119}, {"target": "MAP3K4 C61 (UniProt Q9Y6R4)", "log2 mean competition ratio": 0.77}, {"target": "LTN1 C981 (UniProt O94822)", "log2 mean competition ratio": 0.191}, {"target": "MAPKAPK3 C379 (UniProt Q16644)", "log2 mean competition ratio": 0.0411}, {"target": "LRRFIP1 C644 (UniProt Q32MZ4)", "log2 mean competition ratio": -0.000731}, {"target": "MAPKAPK2 C98 (UniProt P49137)", "log2 mean competition ratio": -0.119}, {"target": "MAF C305", "log2 mean competition ratio": 0.424}, {"target": "MCRS1 C84 (UniProt Q96EZ8)", "log2 mean competition ratio": -0.0333}, {"target": "MAP4K3 C555 (UniProt Q8IVH8)", "log2 mean competition ratio": -0.172}, {"target": "MARK4 C459 (UniProt Q96L34)", "log2 mean competition ratio": 0.297}, {"target": "MCM7 C378 (UniProt P33993)", "log2 mean competition ratio": -0.129}, {"target": "LSM7 C76 (UniProt Q9UK45)", "log2 mean competition ratio": 0.221}, {"target": "MACF1 C6646", "log2 mean competition ratio": 0.0917}, {"target": "MAP2K7 C260 (UniProt O14733)", "log2 mean competition ratio": 0.177}, {"target": "LZTR1 C342 (UniProt Q8N653)", "log2 mean competition ratio": -0.149}, {"target": "MCM10 C786 (UniProt Q7L590)", "log2 mean competition ratio": 0.232}, {"target": "MAP3K15 C1227 (UniProt Q6ZN16)", "log2 mean competition ratio": -0.183}, {"target": "LRRFIP1 C750 (UniProt Q32MZ4)", "log2 mean competition ratio": 0.144}]}]}
